Here are results for 1 sequence from paper PMC5996148.

Amino acid sequences for entries named in this document (tags omitted).
UniProt Q9GZZ9, whole entry: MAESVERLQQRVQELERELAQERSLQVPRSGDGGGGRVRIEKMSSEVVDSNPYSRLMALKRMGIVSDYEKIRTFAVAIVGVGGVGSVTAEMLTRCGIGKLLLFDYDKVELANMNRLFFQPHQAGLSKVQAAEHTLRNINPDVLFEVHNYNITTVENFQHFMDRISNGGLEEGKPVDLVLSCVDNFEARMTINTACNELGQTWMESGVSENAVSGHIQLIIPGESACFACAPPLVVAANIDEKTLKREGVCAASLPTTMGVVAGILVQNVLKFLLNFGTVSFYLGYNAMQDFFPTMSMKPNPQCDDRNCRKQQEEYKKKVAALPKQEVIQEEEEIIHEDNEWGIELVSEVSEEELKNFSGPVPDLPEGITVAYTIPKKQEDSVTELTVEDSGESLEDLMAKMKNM

What all share (assay): protein microarray (ProtoArray v5.0), streptavidin-Alexa Fluor 647
Settings in all cases: 3'-biotin; 20 mM Tris (pH 7.5), 5 mM MgCl2, 100 mM KCl, 0.1% Tween-20, A/T-rich and random oligonucleotide blockers; temperature not stated; high values mean tight binding

In assay [1] the test system is Tumor protein D53 (human).
The test system of assay [2] is Tumor suppressor candidate 3 (human).
The test system of assay [3] is UBADC1 (human).
Assay [4] concerns the target UBE1DC1 (UniProt Q9GZZ9).
Assay [5] relates to UBE1L2 (human).
Assay [6] concerns UBE2C (human).
Assay [7] has as its system UBE2L6 (human).
Assay [8] has as its system UBE2Z (human).
Assay [9] deals with UBE3C (human).
Assay [10] has as its system UBL4A (human).
In assay [11] the test system is UBQLN1 (human).
Assay [12] concerns UBQLN2 (human).
In assay [13] the test system is UBTD2 (human).
In assay [14] the test system is UBX domain-containing protein 7 (human).
The subject of assay [15] is UCHL1 (human).
In assay [16] the test system is UCHL3 (human).
The test system of assay [17] is UCHL5 (human).
Assay [18] has as its system UGP2 (human).
Assay [19] deals with ULK4 (human).
For assay [20], the system named is UMPS (human).

“And” between values parts separate entries of the source, which are not always exact repeats. Identical values can stand only once. This is one part of the list. For some assays here: The exact form of the protein is not confirmed.

For “GGTGACAGGGGTATGGGGAGGGG [G4-2 biotinylated (Ct1)]”, the binding signal is -0.378 z-score in assay [1]; -0.372 z-score in assay [2]; -0.39 z-score in assay [3]; -0.394 z-score in assay [4]; -0.374 z-score in assay [5]; -0.409 z-score and -0.4 z-score in assay [6]. Also, the binding signal in assay [7] was -0.384 z-score; in assay [8], -0.367 z-score; in assay [9] it was -0.37 z-score; in [10], -0.393 z-score; in assay [11], -0.399 z-score; in assay [12], -0.402 z-score. The binding signal in [13] is -0.383 z-score; in [14], -0.396 z-score; in [15], -0.389 z-score; in [16], -0.396 z-score; in [17], -0.399 z-score and -0.382 z-score; in assay [18], -0.39 z-score. For the same sequence, the binding signal in assay [19] was -0.357 z-score; in assay [20], -0.375 z-score.
